{"sequences": {"note": "The chains behind the UniProt entries cited, without tags or fusion partners. Residues count along the entry.", "UniProt P07333, residues 20-972": "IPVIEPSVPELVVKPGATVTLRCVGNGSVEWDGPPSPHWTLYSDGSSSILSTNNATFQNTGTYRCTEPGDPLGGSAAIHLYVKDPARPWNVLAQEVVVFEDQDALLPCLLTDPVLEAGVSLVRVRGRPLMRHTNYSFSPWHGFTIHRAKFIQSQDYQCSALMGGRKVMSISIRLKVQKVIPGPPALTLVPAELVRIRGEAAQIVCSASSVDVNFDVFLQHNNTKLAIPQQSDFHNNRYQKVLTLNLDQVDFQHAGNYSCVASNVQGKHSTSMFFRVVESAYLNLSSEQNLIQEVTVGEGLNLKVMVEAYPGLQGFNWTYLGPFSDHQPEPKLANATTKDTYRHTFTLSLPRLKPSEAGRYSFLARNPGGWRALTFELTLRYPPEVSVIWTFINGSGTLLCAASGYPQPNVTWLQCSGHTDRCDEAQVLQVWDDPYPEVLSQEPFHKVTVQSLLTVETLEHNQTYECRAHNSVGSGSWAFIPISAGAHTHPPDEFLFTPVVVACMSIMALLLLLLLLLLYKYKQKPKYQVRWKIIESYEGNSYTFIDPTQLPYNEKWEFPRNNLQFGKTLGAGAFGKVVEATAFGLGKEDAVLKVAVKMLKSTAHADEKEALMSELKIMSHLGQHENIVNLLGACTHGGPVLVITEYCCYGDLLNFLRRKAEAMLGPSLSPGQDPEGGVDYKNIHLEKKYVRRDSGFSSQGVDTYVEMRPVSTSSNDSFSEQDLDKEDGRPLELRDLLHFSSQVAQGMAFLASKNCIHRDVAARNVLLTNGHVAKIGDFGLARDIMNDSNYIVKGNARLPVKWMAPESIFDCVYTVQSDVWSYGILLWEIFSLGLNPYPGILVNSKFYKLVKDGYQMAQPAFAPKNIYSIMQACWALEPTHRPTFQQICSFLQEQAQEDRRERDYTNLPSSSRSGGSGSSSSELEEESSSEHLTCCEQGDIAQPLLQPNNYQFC"}, "source": "paper PMC7442838", "binders": {"B1": {"name": "TREM2-Myc (full-length TREM2, Myc-tagged) (receptor, UniProt Q9NZC2 19-230)", "chain": "HNTTVFQGVAGQSLQVSCPYDSMKHWGRRKAWCRQLGEKGPCQRVVSTHNLWLLSFLRRWNGSTAITDDTLGGTLTITLRNLQPHDAGLYQCQSLHGSEADTLRKVLVEVLADPLDHRDAGDLWFPGESESFEDAHVEHSISRSLLEGEIPFPPTSILLLLACIFLIKILAASALWAAAWHGQKPGTHPPSELDCGHDPGYQLQTLPGLRDT"}, "B2": {"name": "TMEM59 (as tested with CSF1R; tag not told) (protein, UniProt Q9BXS4 36-323)", "chain": "EAFDSVLGDTASCHRACQLTYPLHTYPKEEELYACQRGCRLFSICQFVDDGIDLNRTKLECESACTEAYSQSDEQYACHLGCQNQLPFAELRQEQLMSLMPKMHLLFPLTLVRSFWSDMMDSAQSFITSSWTFYLQADDGKIVIFQSKPEIQYAPHLEQEPTNLRESSLSKMSYLQMRNSQAHRNFLEDGESDGFLRCLSLNSGWILTTTLVLSVMVLLWICCATVATAVEQYVPSEKLSIYGDLEFMNEQKLNRYPASSLVVVRSKTEDHEEAGPLPTKVNLAHSEI"}}, "key": {"[1]": {"target": "T1, TMEM59-GFP (full length TMEM59, GFP-tagged) (human) (UniProt Q9BXS4)", "T1 sequence": "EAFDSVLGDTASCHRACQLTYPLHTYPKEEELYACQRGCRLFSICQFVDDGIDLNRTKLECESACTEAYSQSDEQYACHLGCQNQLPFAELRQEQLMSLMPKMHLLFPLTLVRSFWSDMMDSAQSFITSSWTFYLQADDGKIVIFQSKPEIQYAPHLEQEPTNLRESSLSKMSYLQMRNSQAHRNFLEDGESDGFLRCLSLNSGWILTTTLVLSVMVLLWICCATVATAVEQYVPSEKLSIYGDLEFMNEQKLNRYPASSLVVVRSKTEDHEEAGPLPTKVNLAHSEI", "experiment": "co-IP; BV2 cells co-transfected for 24 h with Myc- and GFP-tagged plasmids; NP-40 lysis buffer (25 mM Tris-HCl pH 7.6, 150 mM NaCl, 1 mM EDTA, 1% Nonidet P-40); immunoprecipitation with antibodies against Myc or GFP or control mouse IgG and Protein G Agarose overnight; immunoblot for Myc or GFP"}, "[2]": {"target": "CSF1R-HA (receptor for colony-stimulating factor-1) (UniProt P07333)", "experiment": "co-IP; TMEM59 with CSF1R-HA as a control (Supplementary Fig. 4); cells and antibodies not given"}}, "note": "These are yes or no findings as the source states them, for the method shown. In cells and extracts the contact can be indirect. Some entries that bind do so weakly or less than the wild type. Where a sequence is shown, tags or fusion partners need not be part of it."}
{"binder": "B1", "values": [{"measurement": "binding", "setting": "[1]", "result": "binds"}]}
{"binder": "B2", "values": [{"measurement": "binding", "setting": "[2]", "result": "no binding"}]}
